Test results from PubChem BioAssay AID624297 (National Center for Advancing Translational Sciences (NCATS), 2012).
Among all 340,000 compounds or so, about 6,200 (1.8%) were called active. The shares of active, inactive and inconclusive entries below differ from those in the screen. Calls come from the whole dose curve; as a rule, active = well fitted activation curve with a large enough effect; inconclusive = small, poorly fitted or top-dose-only effect; inactive = no such curve, though single readings can be large or run the other way. A potency beside an inconclusive call is a rough fit, not a confirmed value.

Experiment: A quantitative high throughput screen for small molecules that induce DNA re-replication in SW480 colon adenocarcinoma cells. For re-replication activation: % of control where 0% means no effect. Note: nearly all actives have a fitted effect of over 55% in size.
Conditions: Hoechst DNA content imaging, 48 h; re-replication activation: at 46.1 µM (top of the series)
Procedure, shortened: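 Cells (250 per well) received 23 nL compound or DMSO by pin tool and were kept 48 hr at 37 C, 5% CO2. Nuclei were then stained with Hoechst for 40 min and scanned for DNA content.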
Potency is the fitted concentration of half-maximal effect.

| Structure (SMILES) | Potency | re-replication activation |
| --- | --- | --- |
| O=C(Nc1ccc(OC(F)(F)F)cc1)c1cnccn1 | inconclusive: 16.4 µM [activator, partial curve, poor fit] |  |
| CC(C)c1ccc(C(=O)N(c2ccccn2)C(C)c2ccco2)cc1 (centres undefined) | inconclusive: 6.51 µM [activator, single point] |  |
| CCC(CC)C(=O)c1c[nH]c(C(=O)NC2CCCCCC2)c1 | inconclusive: 29.1 µM [activator, single point] |  |
| Cc1cccc(OCC(=O)Nc2ccc3c4c(cccc24)CC3)c1C | inconclusive: 18.4 µM [activator, single point] |  |
| C/C(=N\OCC(=O)OCC(=O)NC(=O)c1ccccc1)c1ccc2c(c1)OCO2 | inconclusive: 1.03 µM [activator, partial curve, poor fit] |  |
| C/C(=N\Nc1nc(C)cc(C)n1)c1ccc(C)o1 |  | inactive: -11.3% |
| Nc1c(C(=O)c2cccs2)oc2ccccc12 | inconclusive: 16.4 µM [activator, partial curve, poor fit] |  |
| Cc1ccccc1-c1nc(CS(=O)(=O)CC(=O)N2CCOCC2)c(C)o1 | inconclusive: 29.1 µM [activator, single point] |  |
| O=C(NCC1CCCN1S(=O)(=O)c1cccs1)c1cccc(Cl)c1 (centres undefined) | active: 2.91 µM |  |
| O=C(Nc1ccc(Cc2ccncc2)cc1)C1CCC(N2C(=O)C3C4C=CC(C4)C3C2=O)CC1 (centres undefined) |  | inactive: -9.3% |
| Cc1ccc(C(=O)CSc2nc(O)cc(=O)[nH]2)cc1C |  | inactive: -6.56% |
| CCc1nc(NC(C)C)c2oc3ccccc3c2n1 |  | inactive: -4.91% [at 9.22 µM] |
| CC1=NN(S(=O)(=O)c2ccc(C)cc2)C(=O)c2ccccc2O1 |  | inactive: 21.1% |
| Cc1cc(C)c(-c2csc(NC(=O)/C=C/c3cccs3)n2)c(C)c1 | inconclusive: 8.2 µM [activator, partial curve] |  |
| Cc1ccc(S(=O)(=O)c2cc3c(=O)n4ccccc4nc3n(C)c2=N)cc1 | inconclusive: 14.6 µM [activator, single point] |  |
| Cc1ccc(N2C(=O)C3N=NN(CC(=O)N4N=C(c5cccc6ccccc56)CC4c4ccccc4)C3C2=O)cc1 (centres undefined) | inconclusive: 20.6 µM [activator, partial curve, poor fit] |  |
| Cc1cccc(Cn2ncc(Cl)c(Cl)c2=O)c1 | active: 5.8 µM |  |
| Cc1ccc(NC(=O)c2ccco2)c(NC(=O)COc2ccccc2)c1 |  | inactive: -43.1% |
| CN1C2=C(C(=O)CC(C)(C)C2)C(c2cccs2)C2=C1CC(C)(C)CC2=O |  | inactive: 26.7% |
| CCCC(=O)N1CCN(c2nc3ccccc3s2)CC1 | inconclusive: 20.6 µM [activator, single point] |  |
| Cc1ccc2[nH]c(=O)c(CN(CC3COCCO3)C(=O)Nc3ccccc3C)cc2c1 (centres undefined) | inconclusive: 29.1 µM [activator, single point] |  |
| Fc1ccc2[nH]c3c(Cl)ncnc3c2c1 | inconclusive: 20.6 µM [activator, single point] |  |

| Structure (SMILES) | Potency | re-replication activation |
| --- | --- | --- |
| COC(=O)c1nn(-c2ccccc2)c(-c2ccccc2)c1C(=O)c1ccccc1 | inconclusive: 20.6 µM [activator, partial curve, poor fit] |  |
| Cc1ccc(S(=O)(=O)N(C)CCCC(=O)Nc2cccc3ccccc23)cc1 | inconclusive: 32.6 µM [activator, partial curve, poor fit] |  |
| COc1cc2cncc(Cc3ccc(Cl)cc3)c2cc1OC | inconclusive: 1.46 µM [activator, full curve, poor fit] |  |
| O=[N+]([O-])c1cc(/C=N/O)ccc1SCc1ccccc1Cl | inconclusive: 18.4 µM [activator, single point] |  |
| CCOc1ccc2c(c1)C(C)=CC(C)(C)N2S(=O)(=O)c1ccc(F)cc1 | inconclusive: 29.1 µM [activator, partial curve, poor fit] |  |
| CC(C)CCNC(=O)NC(=O)COC(=O)/C=C/c1cc(Br)ccc1F | inconclusive: 20.6 µM [activator, single point] |  |
| CCOc1ccc(C2C3=C(CCCC3=O)OC(N)=C2[N+](=O)[O-])cc1 (centres undefined) |  | inactive: -6.86% |
| N/C(Cc1ccc(Cl)cc1Cl)=N\OC(=O)Cc1ccccc1 | inconclusive: 0.103 µM [activator, full curve, poor fit] |  |
| COc1ccc(/C=N/NC(=O)c2nnn(-c3nonc3N)c2-c2cccs2)c(OC)c1 |  | inactive: -4.89% |
| O=C(CSc1nc2cc(C(=O)O)ccc2c(=O)n1-c1ccc(F)cc1)Nc1ccc(F)c(F)c1F |  | inactive: -88.3% |
| O=C(Nc1ccccc1)/C(=C\c1ccc2c(c1)OCO2)NC(=O)c1ccco1 | inconclusive: 2.59 µM [activator, single point] |  |
| CCOc1cc(N2CCOCC2)c(OCC)cc1NC(=O)c1cc(S(=O)(=O)N2CCOCC2)ccc1Cl | inconclusive: 25.9 µM [activator, single point] |  |
| Cc1cc(C(=O)CSc2nnc(-c3ccco3)o2)c(C)n1C | inconclusive: 16.4 µM [activator, single point] |  |
| Cc1ccc([N+](=O)[O-])cc1S(=O)(=O)Nc1cccc(S(=O)(=O)NC2=NCCC2)c1 |  | inactive: 2.05% |
| CCc1cccc(C)c1NC(=O)COC(=O)c1cc([N+](=O)[O-])ccc1N1CCOCC1 |  | inactive: -48.3% |
| Oc1ccc2ccccc2c1N=Nc1nccs1 | inconclusive: 0.1 µM [activator, full curve, poor fit] |  |
| Cc1cc(C)cc(NC(=O)Nc2cccc(S(N)(=O)=O)c2)c1 | inconclusive: 29.1 µM [activator, single point] |  |
| Cc1ccc(C)c(S(=O)(=O)N2CCCOC2CNC(=O)C(=O)NCCc2ccco2)c1 (centres undefined) | inconclusive: 29.1 µM [activator, partial curve, poor fit] |  |
| CCOC(=O)COc1ccc(S(=O)(=O)N2CCN(c3ccccc3)CC2)cc1 |  | inactive: -1.71% |
| CCN(CC)C(=O)c1sc2nc(-c3cccs3)cc(-c3cccs3)c2c1N |  | inactive: 1.16% |
| CN(C)/N=C/C=C1\CCC/C(=C\c2ccc(F)c(F)c2)C1=O | inconclusive: 18.4 µM [activator, single point] |  |
| CCCC(=O)C1=C(O)C(C(=O)OC)C(C)(C)CC1=NC (centres undefined) | inconclusive: 0.0046 µM [activator, full curve, poor fit] |  |

Some of these compounds in order of SMILES length, ascending:

| Structure (SMILES) | Potency | re-replication activation |
| --- | --- | --- |
| CCCC(=O)C1=C(O)C(C(=O)OC)C(C)(C)CC1=NC (centres undefined) | inconclusive: 0.0046 µM [activator, full curve, poor fit] |  |
| Cc1cccc(OCC(=O)Nc2ccc3c4c(cccc24)CC3)c1C | inconclusive: 18.4 µM [activator, single point] |  |
| C/C(=N\OCC(=O)OCC(=O)NC(=O)c1ccccc1)c1ccc2c(c1)OCO2 | inconclusive: 1.03 µM [activator, partial curve, poor fit] |  |
